In US20060234292A1, “Methods of diagnosing and treating diabetes and insulin resistance” (priority 2002, published 2006):
At least one compound was matched to its structure with a doubt left.

Key:
Format in all cases: in vivo, human
[1] = test system: MAST205/MAST205b transcripts; assay: Gene expression profiling (Affymetrix chips) of muscle from diabetics before/after 3 months troglitazone: MAST205/MAST205b; settings: treated for 3 months with troglitazone
Method: Gene expression profiling was performed on tissue samples (muscle) obtained from lean obese and diabetic individuals. Two studies were performed. In the first study, basal samples were isolated from all individuals at the beginning of a 5 hour hyperinsulinemic euglycemic clamp. Clamp samples were isolated at the end of this procedure. Similar basal and clamp samples were taken 3 months later after all patients had taken the insulin sensitizing drug troglitazone (tro). Gene expression profile differences were calculated as follows. The expression level of a particular gene is indicated by its ‘average difference score’. The raw data was analyzed by a statistical test to remove ‘outliers’. The mean ‘average difference score’ was then calculated from the average difference scores for all individuals in a particular treatment group. Genes were determined to be changed in three different comparisons by calculating the Students t test statistic between two conditions and selecting those with t less than or equal to 0.05. Fold change was determined as the ratio of mean average difference score in condition 2 to the mean average difference score in condition 1. The first comparison is basal leans (condition 1) versus basal obese (condition 2). The second comparison is basal leans (condition 1) versus basal diabetics (condition). […]

[2] = test system: Protein C inhibitor (PCI) expression; assay: Real time PCR of PCI expression in muscle, pre- vs post-troglitazone-treated patients; settings: treatment with Troglitazone
Method: The gene expression changes observed in the human muscle samples derived from the various comparison populations analyzed in the profiling analysis described above were further confirmed by the use of real-time quantitative PCR. A combination of specific PCR primers and a Taqman probe were designed to detect and quantify expression levels for each gene. Relative gene expression levels were determined in this manner in each patient and the mean expression levels in the comparison populations were then calculated. PCI expression was also evaluated by real time PCR in lean vs. obese individuals and in pre-troglitazone-treated vs post-troglitazone-treated patients.

[3] = test system: Protein C inhibitor (PCI) transcripts; assay: Gene expression profiling (Affymetrix chips) of muscle from diabetics before/after 3 months troglitazone: PCI
Excerpt: The molecular mechanism by which thiazolidinediones (TZDs) cause an increase in peripheral insulin sensitivity was studied. Genes in muscle or fat whose expression is altered by TZDs may lie on a pathway leading from TZD treatment to increased insulin sensitivity. Modulators of such genes can elicit the same effect as TZD treatment. Moreover, such modulators can lack some of the side effects of TZD. The majority of glucose disposal occurs in muscle. For this reason, gene expression profiling in human muscle from diabetics treated with troglitazone was used to identify genes important for TZD action and therefore treatment of diabetes and insulin resistance. Gene expression profiling was performed on tissue samples (muscle) obtained from lean obese and diabetic individuals. […] Gene expression profile differences were calculated as follows. […] The raw data was analyzed by a statistical test to remove ‘outliers’. The mean ‘average difference score’ was then calculated from the average difference scores for all individuals in a particular treatment group. Genes were determined to be changed in three different comparisons by calculating the Students t test statistic between two conditions and selecting those with t less than or equal to 0.05. Fold change was determined as the ratio of mean average difference score in condition 2 to the mean average difference score in condition 1. […]

MAST205 expression = assay: Real-time PCR (Taqman) specific for MAST205 in muscle before/after 3 months troglitazone; settings: after 3 months of troglitazone treatment compared to before treatment
Method: (§1) The gene expression changes observed in the human muscle samples derived from the various comparison populations analyzed in the profiling analysis described above were further confirmed by the use of real-time quantitative PCR. A combination of specific PCR primers and a Taqman probe were designed to detect and quantify expression levels for each gene. Relative gene expression levels were determined in this manner in each patient and the mean expression levels in the comparison populations were then calculated. […] PCR primers and Taqman Probe were designed to detect specifically the expression of MAST205. The sequences of the primers was as follows: […]

MAST205b expression = assay: Real-time PCR (Taqman) specific for MAST205b in muscle before/after 3 months troglitazone; settings: after 3 months of troglitazone treatment compared to before treatment
Method: as §1, with “MAST205b.” for “MAST205.”

SMILES: Cc1c(C)c2c(c(C)c1O)CCC(C)(COc1ccc(CC3SC(=O)NC3=O)cc1)O2 (centres unmarked) [troglitazone]
- MAST205/MAST205b regulation in muscle of diabetics (in words) [1]: down-regulated
- expression of PCI in muscle from diabetic individuals (in words) [2]: reduces the expression of PCI
- expression of transcripts encoding PCI, tro-treated vs untreated patients (in words) [3]: reduced
- MAST205 regulation in muscle of diabetics (in words) (MAST205 expression): down-regulated
- MAST205b regulation in muscle of diabetics (in words) (MAST205b expression): down-regulated
